# Laboratory results from the supplement of paper PMC12067093, “Discovery and optimisation of a covalent ligand for TRIM25 and its application to targeted protein ubiquitination” (Chemical Science, 2025).
# By UniProt entry, the sequences of proteins in these tests, tags left out. Where a name states a change or a piece, a line headed by the entry shows the natural chain unless it says otherwise.
# UniProt Q9Y3S2: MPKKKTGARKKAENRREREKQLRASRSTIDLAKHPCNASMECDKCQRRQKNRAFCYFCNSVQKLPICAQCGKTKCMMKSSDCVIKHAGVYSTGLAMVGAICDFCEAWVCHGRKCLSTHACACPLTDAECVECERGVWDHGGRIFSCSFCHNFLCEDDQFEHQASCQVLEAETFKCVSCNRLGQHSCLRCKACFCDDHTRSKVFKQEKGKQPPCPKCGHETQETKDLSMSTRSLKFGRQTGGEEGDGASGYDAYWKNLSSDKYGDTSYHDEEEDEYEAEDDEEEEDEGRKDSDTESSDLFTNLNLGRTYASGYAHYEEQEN
# UniProt Q96C55: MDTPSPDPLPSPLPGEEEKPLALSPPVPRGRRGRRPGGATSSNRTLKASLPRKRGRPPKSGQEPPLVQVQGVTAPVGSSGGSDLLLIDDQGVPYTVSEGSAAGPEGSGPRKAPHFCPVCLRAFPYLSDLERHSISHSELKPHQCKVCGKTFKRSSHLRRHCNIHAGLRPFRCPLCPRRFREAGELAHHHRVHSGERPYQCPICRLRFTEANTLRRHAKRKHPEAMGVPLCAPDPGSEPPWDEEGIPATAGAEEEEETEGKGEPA
# UniProt Q96K83: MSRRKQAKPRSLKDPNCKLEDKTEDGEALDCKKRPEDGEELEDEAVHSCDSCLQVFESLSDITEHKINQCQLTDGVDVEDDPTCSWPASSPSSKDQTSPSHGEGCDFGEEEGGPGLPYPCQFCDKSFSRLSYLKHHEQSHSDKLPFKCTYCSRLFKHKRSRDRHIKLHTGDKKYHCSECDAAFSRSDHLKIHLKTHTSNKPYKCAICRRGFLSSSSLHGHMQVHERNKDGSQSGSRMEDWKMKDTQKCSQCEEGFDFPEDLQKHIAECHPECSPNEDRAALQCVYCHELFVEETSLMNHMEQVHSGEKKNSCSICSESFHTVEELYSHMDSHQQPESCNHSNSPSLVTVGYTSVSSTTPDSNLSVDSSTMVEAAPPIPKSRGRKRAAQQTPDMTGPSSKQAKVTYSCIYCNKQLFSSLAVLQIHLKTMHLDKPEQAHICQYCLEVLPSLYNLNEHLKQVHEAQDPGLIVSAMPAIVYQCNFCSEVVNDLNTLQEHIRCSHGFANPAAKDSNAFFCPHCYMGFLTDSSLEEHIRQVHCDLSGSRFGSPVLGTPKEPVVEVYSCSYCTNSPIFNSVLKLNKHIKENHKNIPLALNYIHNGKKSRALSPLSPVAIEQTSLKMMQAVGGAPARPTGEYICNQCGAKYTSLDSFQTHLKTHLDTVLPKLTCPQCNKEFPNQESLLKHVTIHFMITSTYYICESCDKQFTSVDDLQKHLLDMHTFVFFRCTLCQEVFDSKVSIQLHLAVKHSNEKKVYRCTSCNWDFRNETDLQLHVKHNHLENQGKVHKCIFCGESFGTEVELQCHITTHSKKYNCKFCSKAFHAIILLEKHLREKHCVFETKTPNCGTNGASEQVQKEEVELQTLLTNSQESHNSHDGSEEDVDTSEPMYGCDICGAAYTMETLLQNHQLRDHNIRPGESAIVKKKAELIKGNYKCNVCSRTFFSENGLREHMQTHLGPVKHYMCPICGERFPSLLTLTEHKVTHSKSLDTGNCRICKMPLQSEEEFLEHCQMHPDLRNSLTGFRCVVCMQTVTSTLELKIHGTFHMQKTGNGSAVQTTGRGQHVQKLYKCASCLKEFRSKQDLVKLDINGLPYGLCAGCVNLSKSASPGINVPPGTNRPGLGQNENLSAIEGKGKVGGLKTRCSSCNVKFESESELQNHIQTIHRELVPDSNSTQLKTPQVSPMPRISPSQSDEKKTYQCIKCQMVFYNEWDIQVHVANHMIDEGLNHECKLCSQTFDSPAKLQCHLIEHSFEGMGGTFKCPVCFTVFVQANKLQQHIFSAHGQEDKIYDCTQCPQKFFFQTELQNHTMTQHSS
# UniProt O75362: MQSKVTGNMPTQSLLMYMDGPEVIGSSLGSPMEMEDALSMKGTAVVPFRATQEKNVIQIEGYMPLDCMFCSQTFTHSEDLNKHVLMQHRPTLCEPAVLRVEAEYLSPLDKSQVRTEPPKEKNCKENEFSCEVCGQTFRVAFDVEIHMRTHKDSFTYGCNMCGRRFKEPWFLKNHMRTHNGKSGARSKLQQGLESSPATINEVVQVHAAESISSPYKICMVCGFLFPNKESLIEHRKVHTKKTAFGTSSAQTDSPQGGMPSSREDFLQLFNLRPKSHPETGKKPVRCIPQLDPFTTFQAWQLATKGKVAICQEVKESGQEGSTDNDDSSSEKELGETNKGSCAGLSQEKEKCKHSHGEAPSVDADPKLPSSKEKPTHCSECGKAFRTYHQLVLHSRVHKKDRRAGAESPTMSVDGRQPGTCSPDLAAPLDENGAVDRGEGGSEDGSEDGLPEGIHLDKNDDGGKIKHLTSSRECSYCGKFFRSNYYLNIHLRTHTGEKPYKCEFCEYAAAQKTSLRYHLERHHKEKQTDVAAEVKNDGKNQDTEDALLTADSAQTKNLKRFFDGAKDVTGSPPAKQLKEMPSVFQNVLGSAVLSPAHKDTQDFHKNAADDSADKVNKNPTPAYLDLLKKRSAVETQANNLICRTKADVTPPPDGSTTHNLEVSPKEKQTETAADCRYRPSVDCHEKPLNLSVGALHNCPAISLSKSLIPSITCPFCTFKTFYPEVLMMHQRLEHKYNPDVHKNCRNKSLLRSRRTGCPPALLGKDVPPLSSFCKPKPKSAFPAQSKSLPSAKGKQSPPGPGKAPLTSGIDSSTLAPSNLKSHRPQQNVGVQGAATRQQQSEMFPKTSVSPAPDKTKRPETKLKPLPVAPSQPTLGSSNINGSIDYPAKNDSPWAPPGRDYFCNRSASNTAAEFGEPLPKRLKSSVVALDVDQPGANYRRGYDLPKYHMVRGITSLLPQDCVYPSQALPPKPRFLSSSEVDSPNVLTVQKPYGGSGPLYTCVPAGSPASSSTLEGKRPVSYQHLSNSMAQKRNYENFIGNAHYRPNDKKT
# UniProt Q8WV99: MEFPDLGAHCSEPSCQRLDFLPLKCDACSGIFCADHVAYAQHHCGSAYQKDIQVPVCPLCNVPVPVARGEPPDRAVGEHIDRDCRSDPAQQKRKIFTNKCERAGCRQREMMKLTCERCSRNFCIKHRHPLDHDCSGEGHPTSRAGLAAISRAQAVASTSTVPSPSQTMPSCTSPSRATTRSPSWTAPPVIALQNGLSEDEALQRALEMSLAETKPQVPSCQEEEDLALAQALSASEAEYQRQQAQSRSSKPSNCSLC
# UniProt Q9HBF4: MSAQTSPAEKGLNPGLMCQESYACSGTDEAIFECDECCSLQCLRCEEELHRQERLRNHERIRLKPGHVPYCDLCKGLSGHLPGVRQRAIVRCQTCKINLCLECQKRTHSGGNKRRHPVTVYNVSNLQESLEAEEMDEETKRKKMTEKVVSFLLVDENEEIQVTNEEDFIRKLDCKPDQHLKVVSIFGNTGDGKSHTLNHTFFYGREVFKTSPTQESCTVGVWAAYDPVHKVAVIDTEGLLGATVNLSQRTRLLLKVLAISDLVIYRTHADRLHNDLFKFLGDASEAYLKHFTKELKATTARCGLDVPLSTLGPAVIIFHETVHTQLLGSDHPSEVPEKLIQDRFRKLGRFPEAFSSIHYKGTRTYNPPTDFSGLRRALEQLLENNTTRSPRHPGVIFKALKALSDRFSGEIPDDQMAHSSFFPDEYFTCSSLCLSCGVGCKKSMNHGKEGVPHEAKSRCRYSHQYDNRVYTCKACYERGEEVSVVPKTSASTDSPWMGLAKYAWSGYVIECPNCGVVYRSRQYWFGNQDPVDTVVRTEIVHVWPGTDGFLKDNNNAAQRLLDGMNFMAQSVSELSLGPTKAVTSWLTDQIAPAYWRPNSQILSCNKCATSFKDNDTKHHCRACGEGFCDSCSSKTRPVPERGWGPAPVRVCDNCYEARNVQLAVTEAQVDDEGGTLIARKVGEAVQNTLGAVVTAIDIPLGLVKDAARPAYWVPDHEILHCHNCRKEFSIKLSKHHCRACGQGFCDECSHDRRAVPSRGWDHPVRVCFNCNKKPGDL
# UniProt Q9Y4E5: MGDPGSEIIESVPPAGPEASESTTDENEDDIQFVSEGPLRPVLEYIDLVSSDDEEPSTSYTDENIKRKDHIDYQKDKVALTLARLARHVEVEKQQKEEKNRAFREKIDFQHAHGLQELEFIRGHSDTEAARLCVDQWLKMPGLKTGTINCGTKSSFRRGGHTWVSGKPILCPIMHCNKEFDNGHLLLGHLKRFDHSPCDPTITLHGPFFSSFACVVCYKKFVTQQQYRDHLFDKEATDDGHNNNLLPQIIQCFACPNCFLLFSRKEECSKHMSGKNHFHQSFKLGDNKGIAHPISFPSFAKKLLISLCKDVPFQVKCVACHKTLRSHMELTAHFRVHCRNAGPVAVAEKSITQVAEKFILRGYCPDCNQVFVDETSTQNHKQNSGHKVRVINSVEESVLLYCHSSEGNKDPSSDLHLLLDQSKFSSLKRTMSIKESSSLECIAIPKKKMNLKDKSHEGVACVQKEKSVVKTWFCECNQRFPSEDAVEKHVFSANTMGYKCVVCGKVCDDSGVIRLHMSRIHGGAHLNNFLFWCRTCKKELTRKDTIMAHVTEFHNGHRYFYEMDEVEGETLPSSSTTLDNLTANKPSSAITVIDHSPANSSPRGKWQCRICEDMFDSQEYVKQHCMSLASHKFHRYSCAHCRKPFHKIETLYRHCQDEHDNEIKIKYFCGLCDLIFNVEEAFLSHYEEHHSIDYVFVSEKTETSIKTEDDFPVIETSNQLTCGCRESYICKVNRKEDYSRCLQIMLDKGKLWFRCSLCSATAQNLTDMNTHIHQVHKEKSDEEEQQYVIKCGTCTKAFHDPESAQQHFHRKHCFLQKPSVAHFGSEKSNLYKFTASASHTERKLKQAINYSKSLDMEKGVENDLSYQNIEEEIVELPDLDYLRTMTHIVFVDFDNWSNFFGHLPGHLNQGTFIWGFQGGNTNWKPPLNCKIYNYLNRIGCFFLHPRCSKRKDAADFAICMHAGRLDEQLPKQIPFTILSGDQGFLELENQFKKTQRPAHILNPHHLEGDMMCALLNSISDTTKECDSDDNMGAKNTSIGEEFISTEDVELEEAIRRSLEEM
# UniProt Q9H4I2: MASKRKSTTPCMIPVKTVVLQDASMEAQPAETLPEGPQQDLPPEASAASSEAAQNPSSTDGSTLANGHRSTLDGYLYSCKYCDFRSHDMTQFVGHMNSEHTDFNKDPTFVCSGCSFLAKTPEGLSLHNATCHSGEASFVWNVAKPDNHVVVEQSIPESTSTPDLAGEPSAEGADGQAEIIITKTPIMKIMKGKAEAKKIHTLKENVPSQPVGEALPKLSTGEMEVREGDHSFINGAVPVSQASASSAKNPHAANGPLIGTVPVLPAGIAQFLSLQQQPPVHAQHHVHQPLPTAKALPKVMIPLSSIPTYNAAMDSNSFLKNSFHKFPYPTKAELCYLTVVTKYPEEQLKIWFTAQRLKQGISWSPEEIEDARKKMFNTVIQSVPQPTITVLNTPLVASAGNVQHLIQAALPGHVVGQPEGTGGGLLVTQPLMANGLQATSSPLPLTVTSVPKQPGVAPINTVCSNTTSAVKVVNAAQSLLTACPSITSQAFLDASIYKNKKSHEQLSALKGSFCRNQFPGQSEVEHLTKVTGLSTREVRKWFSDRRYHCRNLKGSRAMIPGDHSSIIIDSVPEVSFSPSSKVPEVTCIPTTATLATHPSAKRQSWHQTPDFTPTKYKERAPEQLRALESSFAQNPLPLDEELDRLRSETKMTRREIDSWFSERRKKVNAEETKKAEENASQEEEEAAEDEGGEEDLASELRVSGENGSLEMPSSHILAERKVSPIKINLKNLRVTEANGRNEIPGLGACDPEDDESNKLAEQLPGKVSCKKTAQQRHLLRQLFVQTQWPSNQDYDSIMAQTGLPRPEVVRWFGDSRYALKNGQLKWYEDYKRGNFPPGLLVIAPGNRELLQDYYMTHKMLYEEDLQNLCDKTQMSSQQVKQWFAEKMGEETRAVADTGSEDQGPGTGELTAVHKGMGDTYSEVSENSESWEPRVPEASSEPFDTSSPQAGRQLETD
# UniProt Q5VV52: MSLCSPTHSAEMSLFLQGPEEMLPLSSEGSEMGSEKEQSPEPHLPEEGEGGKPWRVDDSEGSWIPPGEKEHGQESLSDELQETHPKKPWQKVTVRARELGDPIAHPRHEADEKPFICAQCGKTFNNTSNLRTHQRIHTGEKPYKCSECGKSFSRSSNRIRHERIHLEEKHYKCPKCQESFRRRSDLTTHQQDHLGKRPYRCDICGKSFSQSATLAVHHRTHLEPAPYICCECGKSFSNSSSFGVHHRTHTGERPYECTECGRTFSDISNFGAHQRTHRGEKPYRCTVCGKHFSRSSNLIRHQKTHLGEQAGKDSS
# Some of the results follow.
# Compound: CC1Cc2ccccc2N1C(=O)C1CCCN(C1)C(=O)CCl (mixture of isomers) [TRIM25 ligand 11 (diastereomer mixture)]
# Experiment: probe-labelled cysteine peptide fold change vs DMSO (competition) (log2 fold change); higher = less target engagement (more negative = stronger competition)
# Settings: 10 µM; THP-1; incubation time: 4 h
# 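Also: competitive chemoproteomic profiling in live THP-1 cells with an iodoacetamide desthiobiotin (IA-DTB) probe, comparing probe-labelled peptide intensities in compound-treated cells against DMSO-treated controls.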
row,Target,probe-labelled cysteine peptide fold change
1,ZNF224_Q9NZL3_132_EGDFPCQTEAGLSVIHTR (UniProt Q9NZL3),0.246
2,ZMYM3_Q14202_633+636_GVVSQCEHCR (UniProt Q14202),0.0611
3,ZNF330_Q9Y3S2_120+122_CLSTHACACPLTDAECVECER (UniProt Q9Y3S2),0.358
4,ZMYND8_Q9ULU4_91_NDFYCWVCHR (UniProt Q9ULU4),0.0216
5,ZNF326_Q5BKZ1_360_VVMEFLHECMVNK (UniProt Q5BKZ1),0.0411
6,ZNF524_Q96C55_161_HCNIHAGLRPFR (UniProt Q96C55),0.188
7,ZNF330_Q9Y3S2_194_ACFCDDHTR (UniProt Q9Y3S2),-0.137
8,ZNF280D_Q6N043_630_CIECCSEIK (UniProt Q6N043),-0.00597
9,ZNF521_Q96K83_31_TEDGEALDCK (UniProt Q96K83),0.127
10,ZNF592_Q92610_175_HSDSYFPPPLGCGAVGGPVLEALAK (UniProt Q92610),-0.087
11,ZNF124_Q15973_245_AFSCLSSLQGHIK (UniProt Q15973),0.163
12,ZNF217_O75362_697_PLNLSVGALHNCPAISLSK (UniProt O75362),-0.0727
13,ZFAND2B_Q8WV99_84_AVGEHIDRDCR (UniProt Q8WV99),-0.306
14,ZNF217_O75362_310_VAICQEVK (UniProt O75362),0.36
15,ZMYM2_Q9UBW7_612_LYNFCNSSCVAK (UniProt Q9UBW7),0.012
16,ZNF516_Q92618_1016_TLATCAAGSR (UniProt Q92618),0.000755
17,ZNF280C_Q8ND82_714_THTCQVIIENVSK (UniProt Q8ND82),0.0871
18,ZMYM4_Q5VZL5_732_INNVMAMCEYCK (UniProt Q5VZL5),-0.00457
19,ZFYVE1_Q9HBF4_45_CEEELHRQER (UniProt Q9HBF4),-0.129

row,Target,probe-labelled cysteine peptide fold change
1,ZMYM4_Q5VZL5_1368_IEEEHLWECK (UniProt Q5VZL5),0.202
2,ZMYM3_Q14202_484_FCNTTCLGAYK (UniProt Q14202),-0.00156
3,ZNF280C_Q8ND82_358_QNNESWENHTTCQHCYR (UniProt Q8ND82),0.21
4,ZNF451_Q9Y4E5_507_VCDDSGVIR (UniProt Q9Y4E5),0.0216
5,ZNF512_Q96ME7_324_SEHGPISFFPESGQPECLK (UniProt Q96ME7),0.0655
6,ZHX3_Q9H4I2_11_STTPCMIPVK (UniProt Q9H4I2),-0.0464
7,ZMIZ2_Q8NF64_471_CYHHEDR (UniProt Q8NF64),0.0683
8,ZNF106_Q9H2Y7_1576_VNCLLVTQTSGK (UniProt Q9H2Y7),0.121
9,ZNF516_Q92618_827_ECQPLLLAR (UniProt Q92618),-0.0146
10,ZNF691_Q5VV52_232_THLEPAPYICCECGK (UniProt Q5VV52),-0.283
11,ZFPL1_O95159_24_VNVCEHCLVANHAK (UniProt O95159),0.0491
12,ZNF451_Q9Y4E5_133_LCVDQWLK (UniProt Q9Y4E5),0.108
13,ZFP91_Q96JP5_313+318_CEMEGCGTVLAHPR (UniProt Q96JP5),-0.193
14,ZNF326_Q5BKZ1_314+317_MAFTCSFCK (UniProt Q5BKZ1),-0.0558
15,ZNF687_Q8N1G0_566_IEVTCNHCAR (UniProt Q8N1G0),0.0232
16,ZNF451_Q9Y4E5_461_SHEGVACVQK (UniProt Q9Y4E5),-0.00533
17,ZNF106_Q9H2Y7_22_DISHECR (UniProt Q9H2Y7),0.339
18,ZNF649_Q9BS31_183_AHECTDCGK (UniProt Q9BS31),0.0798
19,ZMYND8_Q9ULU4_106_EGQVLCCELCPR (UniProt Q9ULU4),0.247

# Same assay, conditions: 50 µM; THP-1; incubation time: 4 h
row,Target,probe-labelled cysteine peptide fold change
1,ZNF224_Q9NZL3_132_EGDFPCQTEAGLSVIHTR (UniProt Q9NZL3),-0.206
2,ZMYM3_Q14202_633+636_GVVSQCEHCR (UniProt Q14202),0.191
3,ZNF330_Q9Y3S2_120+122_CLSTHACACPLTDAECVECER (UniProt Q9Y3S2),-0.17
4,ZMYND8_Q9ULU4_91_NDFYCWVCHR (UniProt Q9ULU4),0.0194
5,ZNF326_Q5BKZ1_360_VVMEFLHECMVNK (UniProt Q5BKZ1),-0.027
6,ZNF524_Q96C55_161_HCNIHAGLRPFR (UniProt Q96C55),-0.16
7,ZNF330_Q9Y3S2_194_ACFCDDHTR (UniProt Q9Y3S2),-0.198
8,ZNF280D_Q6N043_630_CIECCSEIK (UniProt Q6N043),0.171
9,ZNF521_Q96K83_31_TEDGEALDCK (UniProt Q96K83),-0.12
10,ZNF592_Q92610_175_HSDSYFPPPLGCGAVGGPVLEALAK (UniProt Q92610),-0.113
11,ZNF124_Q15973_245_AFSCLSSLQGHIK (UniProt Q15973),-0.0798
12,ZNF217_O75362_697_PLNLSVGALHNCPAISLSK (UniProt O75362),0.0836
13,ZFAND2B_Q8WV99_84_AVGEHIDRDCR (UniProt Q8WV99),-0.325
14,ZNF217_O75362_310_VAICQEVK (UniProt O75362),0.131
15,ZMYM2_Q9UBW7_612_LYNFCNSSCVAK (UniProt Q9UBW7),-0.00405
16,ZNF516_Q92618_1016_TLATCAAGSR (UniProt Q92618),-0.0966
17,ZNF280C_Q8ND82_714_THTCQVIIENVSK (UniProt Q8ND82),-0.00287
18,ZMYM4_Q5VZL5_732_INNVMAMCEYCK (UniProt Q5VZL5),-0.0127
19,ZFYVE1_Q9HBF4_45_CEEELHRQER (UniProt Q9HBF4),-0.0541

row,Target,probe-labelled cysteine peptide fold change
1,ZMYM4_Q5VZL5_1368_IEEEHLWECK (UniProt Q5VZL5),0.0976
2,ZMYM3_Q14202_484_FCNTTCLGAYK (UniProt Q14202),-0.000804
3,ZNF280C_Q8ND82_358_QNNESWENHTTCQHCYR (UniProt Q8ND82),0.159
4,ZNF451_Q9Y4E5_507_VCDDSGVIR (UniProt Q9Y4E5),0.0515
5,ZNF512_Q96ME7_324_SEHGPISFFPESGQPECLK (UniProt Q96ME7),-0.122
6,ZHX3_Q9H4I2_11_STTPCMIPVK (UniProt Q9H4I2),-0.103
7,ZMIZ2_Q8NF64_471_CYHHEDR (UniProt Q8NF64),0.117
8,ZNF106_Q9H2Y7_1576_VNCLLVTQTSGK (UniProt Q9H2Y7),0.323
9,ZNF516_Q92618_827_ECQPLLLAR (UniProt Q92618),0.161
10,ZNF691_Q5VV52_232_THLEPAPYICCECGK (UniProt Q5VV52),-0.457
11,ZFPL1_O95159_24_VNVCEHCLVANHAK (UniProt O95159),-0.0641
12,ZNF451_Q9Y4E5_133_LCVDQWLK (UniProt Q9Y4E5),-0.144
13,ZFP91_Q96JP5_313+318_CEMEGCGTVLAHPR (UniProt Q96JP5),-0.222
14,ZNF326_Q5BKZ1_314+317_MAFTCSFCK (UniProt Q5BKZ1),-0.043
15,ZNF687_Q8N1G0_566_IEVTCNHCAR (UniProt Q8N1G0),0.00439
16,ZNF451_Q9Y4E5_461_SHEGVACVQK (UniProt Q9Y4E5),-0.176
17,ZNF106_Q9H2Y7_22_DISHECR (UniProt Q9H2Y7),0.153
18,ZNF649_Q9BS31_183_AHECTDCGK (UniProt Q9BS31),0.285
19,ZMYND8_Q9ULU4_106_EGQVLCCELCPR (UniProt Q9ULU4),0.0715
